Results taken from patent US10618900B2, “5-aromatic alkynyl substituted benzamide compound and preparation method, pharmaceutical composition, and use thereof” (SHANGHAI INSTITUTE OF MATERIA MEDICA, CHINESE ACADEMY OF …, priority 2015, dated 2020).
At least one compound was matched to its structure with a doubt left.

The chains behind the UniProt entries cited, without tags or fusion partners. Residues count along the entry.
UniProt Q13255, 19-1194: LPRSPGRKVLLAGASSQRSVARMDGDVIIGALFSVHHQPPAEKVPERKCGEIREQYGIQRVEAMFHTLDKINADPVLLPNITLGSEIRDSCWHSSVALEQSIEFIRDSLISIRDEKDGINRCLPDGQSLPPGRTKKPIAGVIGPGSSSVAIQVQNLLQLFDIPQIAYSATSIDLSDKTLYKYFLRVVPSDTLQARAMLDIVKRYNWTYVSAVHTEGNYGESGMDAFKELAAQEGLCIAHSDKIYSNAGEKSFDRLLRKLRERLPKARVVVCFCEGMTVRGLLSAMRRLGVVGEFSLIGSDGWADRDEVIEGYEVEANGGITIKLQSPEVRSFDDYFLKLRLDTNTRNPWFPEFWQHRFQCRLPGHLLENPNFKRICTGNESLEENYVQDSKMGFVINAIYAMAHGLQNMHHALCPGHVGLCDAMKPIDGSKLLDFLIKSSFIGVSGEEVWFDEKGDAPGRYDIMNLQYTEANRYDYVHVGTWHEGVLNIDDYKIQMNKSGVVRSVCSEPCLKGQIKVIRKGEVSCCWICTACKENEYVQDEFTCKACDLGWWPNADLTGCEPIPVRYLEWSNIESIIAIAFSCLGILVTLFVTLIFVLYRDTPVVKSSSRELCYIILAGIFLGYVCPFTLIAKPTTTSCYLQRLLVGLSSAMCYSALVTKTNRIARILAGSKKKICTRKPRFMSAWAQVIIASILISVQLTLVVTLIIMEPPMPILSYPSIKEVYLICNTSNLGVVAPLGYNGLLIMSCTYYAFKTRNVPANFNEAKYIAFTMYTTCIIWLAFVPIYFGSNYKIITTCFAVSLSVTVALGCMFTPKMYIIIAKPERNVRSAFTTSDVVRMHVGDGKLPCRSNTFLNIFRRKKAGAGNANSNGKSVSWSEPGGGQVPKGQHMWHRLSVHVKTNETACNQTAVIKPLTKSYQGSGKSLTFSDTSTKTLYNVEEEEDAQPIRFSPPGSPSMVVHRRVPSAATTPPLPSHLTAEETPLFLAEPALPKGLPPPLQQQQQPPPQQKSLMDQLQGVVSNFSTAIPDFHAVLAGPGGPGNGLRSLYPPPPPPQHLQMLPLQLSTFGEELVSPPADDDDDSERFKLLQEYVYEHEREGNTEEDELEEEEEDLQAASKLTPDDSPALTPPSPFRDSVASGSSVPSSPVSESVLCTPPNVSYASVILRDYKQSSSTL

Target: mGluR1 (Homo sapiens (Human), UniProt Q13255)
Assay: mGluR5/1 selectivity test, HEK293/mGluR1 cell line, Fluo-8 calcium
Assay type: cell-based
Conditions: selectivity ratio of IC50 values
From the text: Experimental material: HEK293/mGluR5 cell line, HEK293/mGluR1 cell line, Fluo-8 calcium ion fluorescent dye, positive control JNJ16259685

SMILES | mGluR5/mGluR1
Cc1nc(C#Cc2cccc(C(=O)N3CCc4ccccc4C3)c2)cs1 [ZD012, (3,4-dihydro-isoquinolin-2(1H)-yl)(3-((2-methyl-thiazol-4-yl)ethynyl)phenyl) methanone] | >6944
Cc1nc(C#Cc2cccc(C(=O)Nc3cccnc3)c2)cs1 [ZD013] | >7042
